Assay results as given in paper doi:10.1101/2022.08.17.504273.
Changes are numbered by the printed parent chain. Results are given in words; binding and its absence hold for the method and conditions named. Some results given as binding are weak or reduced against the parent protein; the word gives no strength.

Amino acid sequences for entries named in this document (tags omitted). A change or cut given only in a name is not applied to a line headed by its entry. Chains listed by the source or under a name are the forms on record and can include a tag or linker.
human Arf6 (12-175_Q67L) (P62330, form named): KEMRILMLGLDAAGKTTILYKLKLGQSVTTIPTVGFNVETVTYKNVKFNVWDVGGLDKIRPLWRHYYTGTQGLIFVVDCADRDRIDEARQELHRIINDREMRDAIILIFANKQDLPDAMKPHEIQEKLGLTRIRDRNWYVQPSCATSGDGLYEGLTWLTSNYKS
UniProt Q9NZ32: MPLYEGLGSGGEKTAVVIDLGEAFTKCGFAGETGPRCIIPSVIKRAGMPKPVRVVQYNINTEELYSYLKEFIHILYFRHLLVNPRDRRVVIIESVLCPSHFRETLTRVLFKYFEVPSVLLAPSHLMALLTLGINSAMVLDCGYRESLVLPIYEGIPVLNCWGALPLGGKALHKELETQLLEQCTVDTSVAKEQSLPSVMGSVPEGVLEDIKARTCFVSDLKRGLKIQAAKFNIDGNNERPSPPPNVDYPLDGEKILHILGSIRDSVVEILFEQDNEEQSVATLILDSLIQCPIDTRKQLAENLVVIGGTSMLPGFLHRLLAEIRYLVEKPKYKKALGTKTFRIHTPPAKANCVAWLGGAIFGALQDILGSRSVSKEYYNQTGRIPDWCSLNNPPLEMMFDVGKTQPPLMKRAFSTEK
UniProt Q9UJW0: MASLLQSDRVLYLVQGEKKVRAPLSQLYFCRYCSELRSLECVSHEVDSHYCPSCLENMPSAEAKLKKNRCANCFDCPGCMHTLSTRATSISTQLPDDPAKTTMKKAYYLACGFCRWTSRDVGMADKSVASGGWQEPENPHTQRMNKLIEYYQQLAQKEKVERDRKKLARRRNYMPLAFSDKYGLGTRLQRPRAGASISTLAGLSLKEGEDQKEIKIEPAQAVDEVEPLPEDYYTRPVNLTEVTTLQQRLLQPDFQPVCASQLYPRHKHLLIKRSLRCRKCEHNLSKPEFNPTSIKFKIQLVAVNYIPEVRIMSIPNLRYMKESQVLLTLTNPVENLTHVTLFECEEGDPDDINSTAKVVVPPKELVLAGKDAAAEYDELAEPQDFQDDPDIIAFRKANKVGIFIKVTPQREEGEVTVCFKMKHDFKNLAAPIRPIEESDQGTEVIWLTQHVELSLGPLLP
UniProt O00399: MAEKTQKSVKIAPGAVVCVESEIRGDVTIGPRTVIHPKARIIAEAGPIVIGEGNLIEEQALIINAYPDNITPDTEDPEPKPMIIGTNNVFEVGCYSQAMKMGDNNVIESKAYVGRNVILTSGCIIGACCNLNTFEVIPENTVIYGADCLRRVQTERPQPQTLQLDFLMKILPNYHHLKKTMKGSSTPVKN
UniProt Q9BTE1: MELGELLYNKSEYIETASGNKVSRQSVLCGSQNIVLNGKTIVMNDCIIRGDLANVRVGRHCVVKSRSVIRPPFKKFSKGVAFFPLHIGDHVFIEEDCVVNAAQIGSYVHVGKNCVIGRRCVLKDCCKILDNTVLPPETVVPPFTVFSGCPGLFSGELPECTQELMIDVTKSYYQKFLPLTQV

What was measured:
Assay in all cases: pull-down
[1] = target: T1, mouse JIP3 186-505_L439P (mouse) (UniProt Q9ESN9)
T1 sequence: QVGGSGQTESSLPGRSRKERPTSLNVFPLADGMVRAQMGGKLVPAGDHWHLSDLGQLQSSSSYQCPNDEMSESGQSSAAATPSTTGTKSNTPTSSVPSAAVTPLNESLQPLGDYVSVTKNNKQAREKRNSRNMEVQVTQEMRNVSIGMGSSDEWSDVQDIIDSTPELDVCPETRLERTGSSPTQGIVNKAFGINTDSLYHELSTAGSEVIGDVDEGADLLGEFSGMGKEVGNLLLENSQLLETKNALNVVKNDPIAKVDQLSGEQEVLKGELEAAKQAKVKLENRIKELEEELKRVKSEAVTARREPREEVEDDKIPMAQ

[2] = target: T2, mouse JIP3 186-505_L383A/E386A (mouse) (UniProt Q9ESN9)
T2 sequence: T1 sequence with L198A, E201A, P254L

[3] = target: T3, mouse JIP3^185–505 (JIP3 186-505) (mouse) (UniProt Q9ESN9)
T3 sequence: T1 sequence with P254L

Substance: human Arf6 (12-175_Q67L) (from UniProt P62330 12-175) (domain or fragment)
- binding [1]: no binding

Substance: dynactin pointed end complex (Arp11, p62, p27, p25-6xHis) (from UniProt Q9NZ32;Q9UJW0;O00399;Q9BTE1)
- binding [2]: no binding
- binding [1]: binds
- binding [3]: binds
